Source: PubChem BioAssay AID504467 (National Center for Advancing Translational Sciences (NCATS), 2011)
Hit rate of the full screen: of about 330,000 compounds, about 7,700 (2.3%) were called active. This list was built around the results that the source calls inconclusive (neither active nor inactive); the mix of calls is not that of the screen. Calls come from the whole dose curve; as a rule, active = well fitted inhibition curve with a large enough effect; inconclusive = small, poorly fitted or top-dose-only effect, or effect the other way; inactive = flat fitted curve, though single readings scatter. Where the call is inconclusive, the potency comes from a doubtful curve fit.

test: qHTS screen for small molecules that inhibit ELG1-dependent DNA repair in human embryonic kidney (HEK293T) cells expressing luciferase-tagged ELG1; conditions: HEK293T ELG1-luciferase reporter, luminescence, 16 h, DNA damage induced by 5-fluorouridine; activity change, negative = inhibition: at 46.1 µM (top of the series); note: nearly all actives have a fitted effect of over 55% in size
Method in brief: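 DMSO vehicle served as the neutral condition. Each well held 2,000 cells given 5-fluorouridine plus compound; after 16 hr at 37 °C/5% CO2, ONE-Glo was added and luciferase measured 30 min later.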
% is set by controls: 0 for no effect and ±100 for the full control effect; potency is the fitted concentration of half-maximal effect.

Row | Structure (SMILES) | Potency | activity change, negative = inhibition
1 | CCSc1nnc(NC(=O)NC(C)(C(F)(F)F)C(F)(F)F)s1 | inconclusive: 29.1 µM [inhibitor, single point] | –
2 | O=C(CSc1nnc(Nc2ccccc2F)s1)NC(=O)CN1CCCC1=O | inconclusive: 29.1 µM [activator, single point] | –
3 | Cc1ccccc1C(=O)Nc1cccc(NC(=O)c2ccc(-c3ccc(Br)cc3)o2)c1 | active: 9.2 µM | –
4 | COc1ccc(CCNC(=O)c2cc(-c3ccc(Cl)c(Cl)c3)oc2C)cc1 | inconclusive: 29.1 µM [inhibitor, single point] | –
5 | Cc1ccc(C)c(S(=O)(=O)N2CCCC2CNC(=O)C(=O)NCCc2ccco2)c1 (stereo not drawn) | inconclusive: 13 µM [inhibitor, single point] | –
6 | CSCC[C@H](N)C(=O)N1CCC(C(=O)N[C@H](C)C(=O)Nc2ccc(C(C)C)cc2)CC1 | inconclusive: 14.6 µM [activator, partial curve, poor fit] | –
7 | CCOC(=O)CNC(=O)c1ccc2c(c1)OCCO2 | inconclusive: 11.6 µM [activator, partial curve] | –
8 | O=C(CCCCCNC(=O)N1CCn2c1nc1ccccc12)N[C@H](C(=O)O)c1ccccc1 | inconclusive: 0.103 µM [activator, single point] | –
9 | CC1CCN(c2ccccc2NC(=O)c2ccc(Br)o2)CC1 | – | inactive: -9.27%
10 | CSCC[C@H](NC(=O)OC(C)(C)C)c1nnc(SCc2cccc(F)c2)o1 | inconclusive: 35.5 µM [inhibitor, single point] | –
11 | C=CCn1c(CNc2ccccc2)nnc1SCC(=O)N/N=C/c1ccccc1O | inconclusive: 2.91 µM [inhibitor, full curve] | –
12 | CCOC(=O)C1=C(O)/C(=C\c2ccc(OC)c(OC)c2)N=C1C | – | inactive: -2.76%
13 | c1ccc(SCc2nc3ccccc3s2)nc1 | inconclusive: 11.6 µM [activator, partial curve] | –
14 | CCOC(=O)c1cc(-c2ccccc2)sc1NC(=O)C(C)N1C(=O)c2ccccc2C1=O (stereo not drawn) | – | inactive: 6.43%
15 | CN(C[C@H](Cc1ccccc1)N(C[C@H](Cc1ccccc1)N(CC1(c2ccccc2)CC1)N=O)N=O)N=O | – | inactive: -0.574%
16 | COc1cc(C(C[N+](=O)[O-])c2c(C)cc3ccccn23)ccc1O (stereo not drawn) | – | inactive: 13.6%
17 | O=C(C[n+]1cc(-c2ccc(F)cc2)n2c1CCC2)N1c2ccccc2Sc2ccccc21 | inconclusive: 14.6 µM [activator, partial curve] | –
18 | O=c1[nH]cnc2scc(-c3ccc(-c4ccccc4)cc3)c12 | inconclusive: 2.31 µM [activator, partial curve] | –
19 | O=C(Cn1nnc2ccccc21)NCc1ccccc1 | inconclusive: 6.51 µM [activator, partial curve] | –
20 | O=C(CN1CCN(c2ccccc2)CC1)Nc1ccccc1Sc1ccccc1 | inconclusive: 29.1 µM [inhibitor, single point] | –
21 | Cn1c(CCCOc2ccc(Cl)cc2Cl)n[nH]c1=S | inconclusive: 18.3 µM [activator, partial curve] | –
22 | COc1ccc(C2C(C(=O)Nc3cccnc3)=C(C)Nc3nc(-c4cccs4)nn32)cc1 (stereo not drawn) | inconclusive: 23.1 µM [inhibitor, single point] | –

Complete entries, quoted from the list.
O=C(C[n+]1cc(-c2ccc(F)cc2)n2c1CCC2)N1c2ccccc2Sc2ccccc21 is listed with Potency: inconclusive: 14.6 µM [activator, partial curve]
Cn1c(CCCOc2ccc(Cl)cc2Cl)n[nH]c1=S is listed with Potency: inconclusive: 18.3 µM [activator, partial curve]

(further entries)

Row | Structure (SMILES) | Potency | activity change, negative = inhibition
23 | Cc1nc2c(-c3ccccc3)c[nH]n2c(=O)c1Cc1ccccc1 | inconclusive: 4.61 µM [inhibitor, single point] | –
24 | Cc1csc(NC(=O)CSc2nnc(NC(=O)COc3ccccc3)s2)n1 | – | inactive: 22.6%
25 | Cc1ccc(CS(=O)(=O)Cc2ccc(C(=O)NCc3ccccn3)o2)cc1 | inconclusive: 16.4 µM [inhibitor, single point] | –
26 | Cc1csc(NC(=O)CSc2nnc(NC(=O)NC(C)(C)C)s2)n1 | inconclusive: 8.2 µM [activator, single point] | –
27 | Cc1ccc(N2CCN(C(=O)c3cccc([N+](=O)[O-])c3)CC2)cc1Cl | inconclusive: 18.3 µM [inhibitor, single point] | –
28 | Cc1cc(C(c2ccc(O)cc2)c2cc(C)c(O)cc2C)c(C)cc1O | – | inactive: 7.19%
29 | Fc1ccc(CSc2nnc(Cc3sc(-c4ccccc4)nc3-c3ccccc3)o2)cc1 | inconclusive: 20.6 µM [inhibitor, partial curve, poor fit] | –
30 | COc1ccc(OC)c(NC(=O)c2c(NC(=O)c3ccco3)sc3c2CCC3)c1 | – | inactive: -6.02%
31 | Cc1cc(OCC(=O)N[C@@H](Cc2c[nH]c3ccccc23)C(=O)O)c2c(C)c(C)c(=O)oc2c1 | – | inactive: 3.55%
32 | CC(C)(C)CC(=O)Nc1ccc(C(N)=O)cc1 | inconclusive: 18.4 µM [activator, partial curve, poor fit] | –
33 | Cc1ccc2c(c1)C1CN(C)CCC1N2C(=O)COc1ccc(N(C)S(=O)(=O)c2cccs2)cc1 (stereo not drawn) | – | inactive: -20.6%
34 | O=C(c1ccco1)N1CCN(S(=O)(=O)c2cccc(C(F)(F)F)c2)CC1 | – | inactive: 3.72%
35 | COc1cc(OC)cc(C(=O)Nc2ccc(S(=O)(=O)Nc3nc(C)cc(C)n3)cc2)c1 | inconclusive: 29.1 µM [activator, single point] | –
36 | CC(=O)Cc1nsc(NC(=O)c2cccc(F)c2)n1 | inconclusive: 20.6 µM [activator, partial curve, poor fit] | –
37 | CC(NC(=O)c1ccccc1Cl)C(=O)Nc1ccc2c(c1)OCO2 (stereo not drawn) | inconclusive: 23.1 µM [activator, single point] | –
38 | Cn1c(=O)n(/N=C/c2ccccc2)c2ccccc21 | inconclusive: 29.1 µM [activator, single point] | –
39 | CC(C)c1ccccc1NC(=O)COC(=O)/C=C/c1cccc([N+](=O)[O-])c1 | – | inactive: 16.3%
40 | O=C(NCC(=O)N(Cc1ccco1)C(C(=O)NC1CCCC1)c1ccncc1)c1cccs1 (stereo not drawn) | inconclusive: 29.1 µM [activator, partial curve, poor fit] | –
41 | COc1ccc(S(=O)(=O)NCC2CCCN(Cc3cccc(C(C)=O)c3)C2)cc1 (stereo not drawn) | – | inactive: -0.0576%
42 | CC1CC(C)CN(C(=O)c2ccc(S(=O)(=O)N3CC(C)CC(C)C3)cc2)C1 (stereo not drawn) | inconclusive: 32.6 µM [inhibitor, single point] | –
43 | COC(=O)[C@@H]1C[C@@]2(O)[C@H](O)[C@H](O)[C@H](O)C[C@H]2N1Cc1ccc(C(F)(F)F)cc1 | inconclusive: 29.1 µM [activator, single point] | –
